Data taken from the supplement of paper PMC12823440, “Inhibitors supercharge kinase turnover through native proteolytic circuits” (Nature, 2025).
The other results are listed elsewhere or left out. The calls rarely recur for the same compound in another form.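 In K562 cells expressing nanoluciferase-fused kinases, luminescence was recorded at 4 h intervals between 2 and 18 h, normalized as percent of control with DMSO at 100% and a positive control at 0%. A significant (2 sigma) signal drop marks a time point as decreased. The authors' rule for a hit is not shown and takes in more than the number of time points.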

Sequences of proteins named here, by UniProt entry; tags and fusion partners are left off. A change or cut given only in a name is not applied to a line headed by its entry.
UniProt Q13555: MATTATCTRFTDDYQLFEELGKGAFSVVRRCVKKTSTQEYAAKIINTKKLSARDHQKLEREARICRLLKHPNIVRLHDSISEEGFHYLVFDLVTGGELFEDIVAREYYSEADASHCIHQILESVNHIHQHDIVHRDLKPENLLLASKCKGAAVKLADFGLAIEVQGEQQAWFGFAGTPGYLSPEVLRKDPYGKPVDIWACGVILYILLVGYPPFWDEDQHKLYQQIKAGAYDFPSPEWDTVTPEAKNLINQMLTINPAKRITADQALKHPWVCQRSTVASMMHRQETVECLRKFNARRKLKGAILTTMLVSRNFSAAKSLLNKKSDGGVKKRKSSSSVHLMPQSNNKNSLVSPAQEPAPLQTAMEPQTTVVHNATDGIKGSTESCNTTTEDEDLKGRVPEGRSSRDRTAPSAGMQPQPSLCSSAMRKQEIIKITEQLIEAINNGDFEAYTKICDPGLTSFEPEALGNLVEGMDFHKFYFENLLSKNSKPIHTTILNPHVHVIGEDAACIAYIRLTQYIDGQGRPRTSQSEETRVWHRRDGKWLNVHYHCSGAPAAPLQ
UniProt Q00534, whole entry: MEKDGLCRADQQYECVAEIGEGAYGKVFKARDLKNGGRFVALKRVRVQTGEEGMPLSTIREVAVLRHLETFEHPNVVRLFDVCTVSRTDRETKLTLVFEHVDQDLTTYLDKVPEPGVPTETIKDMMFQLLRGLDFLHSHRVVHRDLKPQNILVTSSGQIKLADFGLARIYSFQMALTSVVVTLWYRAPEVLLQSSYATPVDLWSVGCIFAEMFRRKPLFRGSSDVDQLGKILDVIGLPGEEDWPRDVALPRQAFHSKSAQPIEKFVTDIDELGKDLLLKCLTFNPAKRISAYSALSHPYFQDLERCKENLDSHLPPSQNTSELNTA
UniProt Q00526: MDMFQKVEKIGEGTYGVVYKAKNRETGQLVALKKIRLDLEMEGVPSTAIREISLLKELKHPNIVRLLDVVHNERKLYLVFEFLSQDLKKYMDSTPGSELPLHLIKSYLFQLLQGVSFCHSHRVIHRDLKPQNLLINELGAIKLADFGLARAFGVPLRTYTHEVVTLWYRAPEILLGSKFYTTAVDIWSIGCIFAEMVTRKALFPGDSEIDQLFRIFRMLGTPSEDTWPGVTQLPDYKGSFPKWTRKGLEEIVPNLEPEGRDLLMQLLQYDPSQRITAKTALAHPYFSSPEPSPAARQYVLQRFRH
UniProt Q6PHR2: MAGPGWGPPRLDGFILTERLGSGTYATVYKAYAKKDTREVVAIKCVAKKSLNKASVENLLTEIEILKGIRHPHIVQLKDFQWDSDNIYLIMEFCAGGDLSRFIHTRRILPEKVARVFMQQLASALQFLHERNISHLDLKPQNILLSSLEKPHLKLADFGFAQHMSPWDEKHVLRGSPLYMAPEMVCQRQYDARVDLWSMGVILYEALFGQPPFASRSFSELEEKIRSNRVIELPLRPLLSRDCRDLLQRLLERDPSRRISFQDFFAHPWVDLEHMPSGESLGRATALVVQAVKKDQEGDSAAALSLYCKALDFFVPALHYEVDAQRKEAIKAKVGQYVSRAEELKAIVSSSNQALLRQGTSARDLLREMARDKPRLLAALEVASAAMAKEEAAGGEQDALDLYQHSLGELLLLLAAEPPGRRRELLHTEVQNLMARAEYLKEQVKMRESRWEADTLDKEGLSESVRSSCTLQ
UniProt Q00535, whole entry, looked up: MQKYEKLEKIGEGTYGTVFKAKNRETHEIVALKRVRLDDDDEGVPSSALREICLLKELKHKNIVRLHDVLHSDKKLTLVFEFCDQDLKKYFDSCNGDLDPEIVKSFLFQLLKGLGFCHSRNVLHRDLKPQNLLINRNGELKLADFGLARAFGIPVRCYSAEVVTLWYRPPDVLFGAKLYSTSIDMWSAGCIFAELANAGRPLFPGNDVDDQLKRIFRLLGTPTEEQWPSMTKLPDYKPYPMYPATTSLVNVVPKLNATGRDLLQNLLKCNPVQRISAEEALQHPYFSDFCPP
UniProt Q15118, whole entry, looked up: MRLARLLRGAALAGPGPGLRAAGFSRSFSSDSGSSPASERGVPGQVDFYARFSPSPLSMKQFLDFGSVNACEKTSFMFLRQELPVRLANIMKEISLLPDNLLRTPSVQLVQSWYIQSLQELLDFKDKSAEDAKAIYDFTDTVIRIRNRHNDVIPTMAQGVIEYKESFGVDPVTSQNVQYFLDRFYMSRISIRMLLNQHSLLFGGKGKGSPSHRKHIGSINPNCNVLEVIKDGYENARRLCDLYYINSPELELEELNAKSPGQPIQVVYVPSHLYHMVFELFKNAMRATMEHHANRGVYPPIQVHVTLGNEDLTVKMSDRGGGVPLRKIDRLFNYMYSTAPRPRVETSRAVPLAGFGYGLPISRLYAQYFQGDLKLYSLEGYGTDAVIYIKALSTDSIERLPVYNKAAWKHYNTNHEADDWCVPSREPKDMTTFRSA
UniProt P49137, whole entry, looked up: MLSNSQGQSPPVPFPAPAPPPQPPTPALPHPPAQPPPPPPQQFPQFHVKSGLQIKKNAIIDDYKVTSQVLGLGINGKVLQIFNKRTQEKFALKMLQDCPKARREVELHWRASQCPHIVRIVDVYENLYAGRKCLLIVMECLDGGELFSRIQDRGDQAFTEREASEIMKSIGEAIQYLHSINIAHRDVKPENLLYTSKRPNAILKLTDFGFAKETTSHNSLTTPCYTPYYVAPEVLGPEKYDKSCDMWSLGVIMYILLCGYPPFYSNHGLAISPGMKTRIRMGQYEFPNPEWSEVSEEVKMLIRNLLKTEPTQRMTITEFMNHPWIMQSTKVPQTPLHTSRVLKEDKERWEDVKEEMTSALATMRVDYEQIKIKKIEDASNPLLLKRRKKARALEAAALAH
UniProt P07949, whole entry, looked up: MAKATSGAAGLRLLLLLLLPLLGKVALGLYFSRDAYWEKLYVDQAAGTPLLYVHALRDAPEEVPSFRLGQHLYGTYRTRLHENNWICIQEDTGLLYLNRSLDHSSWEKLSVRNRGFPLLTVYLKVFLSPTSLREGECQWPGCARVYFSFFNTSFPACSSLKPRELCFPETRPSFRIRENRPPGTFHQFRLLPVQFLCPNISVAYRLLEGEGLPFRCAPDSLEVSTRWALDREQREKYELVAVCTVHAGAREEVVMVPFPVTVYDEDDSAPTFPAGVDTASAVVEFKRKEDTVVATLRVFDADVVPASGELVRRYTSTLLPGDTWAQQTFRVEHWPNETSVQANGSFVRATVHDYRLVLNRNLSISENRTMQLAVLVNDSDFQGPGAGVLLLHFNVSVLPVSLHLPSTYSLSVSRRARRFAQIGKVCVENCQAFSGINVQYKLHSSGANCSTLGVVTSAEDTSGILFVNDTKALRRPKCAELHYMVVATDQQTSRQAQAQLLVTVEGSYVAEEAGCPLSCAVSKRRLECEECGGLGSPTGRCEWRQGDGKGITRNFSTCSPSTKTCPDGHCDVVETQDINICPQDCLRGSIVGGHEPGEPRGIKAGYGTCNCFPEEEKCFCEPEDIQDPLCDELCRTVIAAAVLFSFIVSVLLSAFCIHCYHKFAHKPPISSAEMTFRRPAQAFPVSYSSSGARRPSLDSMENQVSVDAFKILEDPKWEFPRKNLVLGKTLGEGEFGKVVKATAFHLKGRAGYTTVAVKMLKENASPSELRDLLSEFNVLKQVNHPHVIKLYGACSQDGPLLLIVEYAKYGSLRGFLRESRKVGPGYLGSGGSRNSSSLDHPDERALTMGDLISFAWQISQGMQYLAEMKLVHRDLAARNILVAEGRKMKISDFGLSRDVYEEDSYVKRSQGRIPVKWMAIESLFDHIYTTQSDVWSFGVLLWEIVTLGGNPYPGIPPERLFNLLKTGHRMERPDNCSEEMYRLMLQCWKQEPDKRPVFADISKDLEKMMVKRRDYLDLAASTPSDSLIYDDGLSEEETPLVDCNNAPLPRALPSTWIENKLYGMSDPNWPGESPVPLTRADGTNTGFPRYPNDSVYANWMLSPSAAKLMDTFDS
UniProt P07949, whole entry M918T, looked up: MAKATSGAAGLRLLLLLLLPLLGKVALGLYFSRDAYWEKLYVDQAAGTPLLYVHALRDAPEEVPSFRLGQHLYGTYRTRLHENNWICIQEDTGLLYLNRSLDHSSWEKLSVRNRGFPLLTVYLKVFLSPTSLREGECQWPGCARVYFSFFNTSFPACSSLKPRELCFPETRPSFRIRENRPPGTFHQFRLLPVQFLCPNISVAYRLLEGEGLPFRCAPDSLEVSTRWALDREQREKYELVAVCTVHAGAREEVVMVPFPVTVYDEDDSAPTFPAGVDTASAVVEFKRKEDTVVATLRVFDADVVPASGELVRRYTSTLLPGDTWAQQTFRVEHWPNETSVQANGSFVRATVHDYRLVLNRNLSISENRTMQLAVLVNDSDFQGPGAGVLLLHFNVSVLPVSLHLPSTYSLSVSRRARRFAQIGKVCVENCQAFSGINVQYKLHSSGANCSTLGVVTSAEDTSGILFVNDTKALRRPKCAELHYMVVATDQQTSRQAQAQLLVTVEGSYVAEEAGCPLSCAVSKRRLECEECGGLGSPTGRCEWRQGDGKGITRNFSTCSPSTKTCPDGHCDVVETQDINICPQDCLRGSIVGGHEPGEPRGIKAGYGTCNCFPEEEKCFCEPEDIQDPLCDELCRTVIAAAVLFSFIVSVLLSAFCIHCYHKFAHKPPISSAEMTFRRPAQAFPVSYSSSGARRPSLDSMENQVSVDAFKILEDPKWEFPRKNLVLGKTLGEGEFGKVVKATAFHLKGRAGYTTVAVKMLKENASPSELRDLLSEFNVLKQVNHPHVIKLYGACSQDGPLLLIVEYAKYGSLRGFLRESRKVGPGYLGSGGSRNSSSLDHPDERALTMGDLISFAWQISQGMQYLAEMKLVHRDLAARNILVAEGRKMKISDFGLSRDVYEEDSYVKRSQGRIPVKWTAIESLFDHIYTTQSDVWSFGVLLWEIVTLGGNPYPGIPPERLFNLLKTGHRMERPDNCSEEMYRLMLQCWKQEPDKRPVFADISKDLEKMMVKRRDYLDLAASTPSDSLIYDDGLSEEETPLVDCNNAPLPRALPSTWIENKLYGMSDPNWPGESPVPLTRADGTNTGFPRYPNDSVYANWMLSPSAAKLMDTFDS
UniProt P07948: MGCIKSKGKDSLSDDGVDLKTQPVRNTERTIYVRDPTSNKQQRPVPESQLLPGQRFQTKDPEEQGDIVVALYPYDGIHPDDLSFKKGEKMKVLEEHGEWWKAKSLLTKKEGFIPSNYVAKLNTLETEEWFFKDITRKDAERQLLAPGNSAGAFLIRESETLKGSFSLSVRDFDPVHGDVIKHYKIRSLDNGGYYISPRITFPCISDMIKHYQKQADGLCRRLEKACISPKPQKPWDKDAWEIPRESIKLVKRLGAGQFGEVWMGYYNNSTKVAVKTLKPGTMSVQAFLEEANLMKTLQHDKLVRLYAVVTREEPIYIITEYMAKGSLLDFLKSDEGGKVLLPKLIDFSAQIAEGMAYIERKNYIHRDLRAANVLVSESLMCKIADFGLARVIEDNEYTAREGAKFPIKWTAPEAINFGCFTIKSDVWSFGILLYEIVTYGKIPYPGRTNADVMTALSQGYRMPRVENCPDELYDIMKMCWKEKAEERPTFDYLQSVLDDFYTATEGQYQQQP
UniProt Q05397, whole entry, looked up: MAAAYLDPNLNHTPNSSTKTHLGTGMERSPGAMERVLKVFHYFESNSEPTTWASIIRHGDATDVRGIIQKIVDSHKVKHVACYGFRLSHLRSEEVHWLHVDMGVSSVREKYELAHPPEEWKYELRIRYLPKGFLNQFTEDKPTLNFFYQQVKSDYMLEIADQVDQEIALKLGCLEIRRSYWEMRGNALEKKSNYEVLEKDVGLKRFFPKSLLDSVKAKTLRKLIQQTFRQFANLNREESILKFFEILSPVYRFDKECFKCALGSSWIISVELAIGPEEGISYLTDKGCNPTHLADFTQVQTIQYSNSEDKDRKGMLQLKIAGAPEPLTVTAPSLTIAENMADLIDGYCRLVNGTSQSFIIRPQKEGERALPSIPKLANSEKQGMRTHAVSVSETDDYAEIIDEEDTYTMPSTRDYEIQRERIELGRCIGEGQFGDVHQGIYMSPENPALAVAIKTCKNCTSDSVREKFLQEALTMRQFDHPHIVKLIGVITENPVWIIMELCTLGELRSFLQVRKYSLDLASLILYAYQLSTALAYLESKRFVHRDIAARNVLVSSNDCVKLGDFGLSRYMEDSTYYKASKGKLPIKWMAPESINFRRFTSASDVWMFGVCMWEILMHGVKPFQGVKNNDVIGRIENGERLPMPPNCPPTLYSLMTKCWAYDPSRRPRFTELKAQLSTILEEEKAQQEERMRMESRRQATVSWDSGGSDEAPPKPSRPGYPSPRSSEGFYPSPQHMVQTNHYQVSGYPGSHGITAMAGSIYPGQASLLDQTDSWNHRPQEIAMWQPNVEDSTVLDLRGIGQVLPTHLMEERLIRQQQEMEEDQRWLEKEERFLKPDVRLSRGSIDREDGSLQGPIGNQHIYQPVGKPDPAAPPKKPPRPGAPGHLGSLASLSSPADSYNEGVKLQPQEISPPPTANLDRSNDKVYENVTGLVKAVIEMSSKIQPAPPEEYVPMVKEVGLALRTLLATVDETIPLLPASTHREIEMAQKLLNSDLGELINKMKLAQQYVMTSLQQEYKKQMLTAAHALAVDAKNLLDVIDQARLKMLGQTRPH

How the values were obtained:
Assay in all cases: number of time points (of 5) at which kinase-Nluc abundance scored as decreased, DMSO-normalised (count); higher = more persistent destabilization
Sorafenib = compound: CNC(=O)c1cc(Oc2ccc(NC(=O)Nc3ccc(Cl)c(C(F)(F)F)c3)cc2)ccn1 [Sorafenib]; conditions: 2.5 µM; K562; 2-18 h
[1] = compound: COc1cc(N2CCC(N3CCN(C)CC3)CC2)ccc1Nc1ncc(Cl)c(Nc2ccccc2S(=O)(=O)C(C)C)n1; conditions: 2.5 µM; K562; 2-18 h
[2] = compound: COc1cc(N2CCN(C)CC2)ccc1Nc1nccc(-c2cn(C)c3cnccc23)n1; conditions: 10 µM; K562; 2-18 h
Bosutinib = compound: COc1cc(Nc2c(C#N)cnc3cc(OCCCN4CCN(C)CC4)c(OC)cc23)c(Cl)cc1Cl [Bosutinib]; conditions: 2.5 µM; K562; 2-18 h
Vandetanib = compound: COc1cc2/c(=N/c3ccc(Br)cc3F)nc[nH]c2cc1OCC1CCN(C)CC1 [Vandetanib]; conditions: 2.5 µM; K562; 2-18 h
Gefitinib = compound: COc1cc2ncnc(Nc3ccc(F)c(Cl)c3)c2cc1OCCCN1CCOCC1 [Gefitinib]; conditions: 10 µM; K562; 2-18 h
[3] = compound: COc1cc2ncnc(Nc3cccc(Br)c3)c2cc1OC; conditions: 10 µM; K562; 2-18 h
[4] = compound: COc1ccc(-c2c[nH]c3nccc(-c4ccsc4)c23)c(OC)c1; conditions: 10 µM; K562; 2-18 h
[5] = compound: COc1ccc(-c2cc3nccn3c(Nc3ncccc3C(N)=O)n2)cc1OC [BAY 61-3606 (dihydrochloride)]; conditions: 2.5 µM; K562; 2-18 h
[6] = compound: COc1ccc(CNC(=O)Nc2ncc([N+](=O)[O-])s2)cc1; conditions: 2.5 µM; K562; 2-18 h
[7] = compound: COc1nccc(-c2c(-c3ccc(F)cc3)ncn2C2CCNCC2)n1; conditions: 10 µM; K562; 2-18 h
HDACs/mTOR Inhibitor 1 = compound: C[C@@H]1CN(C(=O)Nc2ccc(-c3nc(N4CCOCC4)c4cnn(CCCCCCC(=O)NO)c4n3)cc2)CCO1 [HDACs/mTOR Inhibitor 1]; conditions: 10 µM; K562; 2-18 h
Quercitrin = compound: C[C@@H]1O[C@@H](Oc2c(-c3ccc(O)c(O)c3)oc3cc(O)cc(O)c3c2=O)[C@H](O)[C@H](O)[C@H]1O [Quercitrin]; conditions: 10 µM; K562; 2-18 h
[8] = compound: C[C@@]1(C(=O)Nc2ccc(F)nc2)CCCN1c1nc(Nc2cc(C3CC3)n[nH]2)c2cccn2n1; conditions: 10 µM; K562; 2-18 h
Fenebrutinib = compound: C[C@H]1CN(C2COC2)CCN1c1ccc(Nc2cc(-c3ccnc(N4CCn5c(cc6c5CC(C)(C)C6)C4=O)c3CO)cn(C)c2=O)nc1 [Fenebrutinib]; conditions: 10 µM; K562; 2-18 h
[9] = compound: COc1ccc(-c2cc(C(=O)NN=C(C)c3ccc(OC)c(OC)c3)[nH]n2)cc1; conditions: 10 µM; K562; 2-18 h

| Target | number of time points (Sorafenib) | number of time points [1] | number of time points [2] | number of time points (Bosutinib) | number of time points (Vandetanib) | number of time points (Gefitinib) | number of time points [3] | number of time points [4] | number of time points [5] | number of time points [6] | number of time points [7] | number of time points (HDACs/mTOR Inhibitor 1) | number of time points (Quercitrin) | number of time points [8] | number of time points (Fenebrutinib) | number of time points [9] |
| --- | --- | --- | --- | --- | --- | --- | --- | --- | --- | --- | --- | --- | --- | --- | --- | --- |
| ARAF (UniProt P10398) | 0 | 0 | 0 | 0 | 0 | 0 | 0 | 0 | 0 | 0 | 0 | 0 | 0 | 0 | 0 |  |
| PTK2B (UniProt Q14289) | 0 | 0 | 0 | 0 | 0 | 0 | 0 | 0 | 0 | 0 | 0 | 0 | 0 | 0 | 0 | 0 |
| INSRR (UniProt P14616) | 0 | 0 | 0 | 2 | 0 | 0 | 0 | 3 | 0 | 0 | 0 | 0 | 0 | 0 | 0 | 0 |
| CAMK2G (UniProt Q13555) | 0 | 0 | 0 | 0 | 0 | 0 | 0 | 0 | 0 | 0 | 0 | 0 | 0 | 0 | 0 | 2 |
| IRAK3 (UniProt Q9Y616) | 0 | 0 | 0 | 1 | 0 | 0 | 0 | 3 | 2 | 0 | 0 | 0 | 0 | 0 | 0 | 0 |
| CDK6 (UniProt Q00534) | 0 | 0 | 0 | 0 | 0 | 0 | 0 | 0 | 0 | 0 | 0 | 1 | 0 | 0 | 0 | 0 |
| STK24 (UniProt Q9Y6E0) | 0 | 0 | 0 | 0 | 0 | 0 | 0 | 0 | 0 | 0 | 0 | 0 | 0 | 0 | 0 | 0 |
| CDK3 (UniProt Q00526) | 0 | 0 | 0 | 0 | 0 | 0 | 0 | 0 | 0 | 0 | 0 | 0 | 0 | 0 | 0 | 0 |
| DDR1 (UniProt Q08345) | 0 | 1 | 0 | 1 | 3 | 0 | 0 | 0 | 0 | 0 | 0 | 0 | 0 |  | 0 | 1 |
| DYRK2 (UniProt Q92630) | 0 | 3 | 0 | 4 | 3 | 0 | 0 | 1 | 0 | 0 | 0 | 0 | 0 | 0 | 0 | 0 |
| PLK1 (UniProt P53350) | 0 | 0 | 0 | 0 | 0 | 0 | 0 | 0 | 0 | 0 | 0 | 1 | 0 | 0 | 0 | 0 |
| RAF1_S257L (clone: RAF1_mut) (UniProt P04049) | 4 | 0 | 0 | 4 | 2 | 0 | 0 | 2 | 0 | 0 | 0 | 0 | 0 | 0 | 0 | 0 |
| LIMK1 (UniProt P53667) | 3 | 2 | 0 | 3 | 3 | 0 | 0 | 0 | 0 | 0 | 0 | 0 | 0 | 4 | 0 | 1 |
| ERBB3 (UniProt P21860) | 0 | 0 | 0 | 4 | 0 | 0 | 0 | 2 | 0 | 0 | 0 | 0 | 0 | 0 | 0 | 0 |
| FGFR2 (UniProt P21802) | 0 | 0 | 0 | 3 | 1 | 0 | 0 | 0 | 0 | 0 | 0 | 0 | 0 |  | 0 | 1 |
| ULK3 (UniProt Q6PHR2) | 0 | 0 | 0 | 3 | 3 | 0 | 0 | 0 | 0 | 0 | 0 | 0 | 0 | 0 | 0 | 1 |
| PDPK1 (UniProt O15530) | 1 | 0 | 0 | 4 | 0 | 0 | 0 | 0 | 0 | 0 | 0 | 0 | 0 | 0 | 0 | 0 |
| CDK5 (UniProt Q00535) | 0 | 0 | 0 | 0 | 0 | 0 | 0 | 0 |  | 0 |  | 1 | 0 | 0 | 0 | 0 |
| SPHK1 (UniProt Q9NYA1) | 0 | 0 | 0 | 0 | 0 | 0 | 0 | 0 | 0 | 0 | 0 | 3 | 0 | 0 | 0 | 0 |
| PRKCA (UniProt P17252) | 0 | 0 | 0 | 0 | 0 | 0 | 0 | 0 | 0 | 0 | 0 | 0 | 0 | 0 | 0 | 0 |

| Target | number of time points (Sorafenib) | number of time points [1] | number of time points [2] | number of time points (Bosutinib) | number of time points (Vandetanib) | number of time points (Gefitinib) | number of time points [3] | number of time points [4] | number of time points [5] | number of time points [6] | number of time points [7] | number of time points (HDACs/mTOR Inhibitor 1) | number of time points (Quercitrin) | number of time points [8] | number of time points (Fenebrutinib) | number of time points [9] |
| --- | --- | --- | --- | --- | --- | --- | --- | --- | --- | --- | --- | --- | --- | --- | --- | --- |
| BLK (UniProt P51451) | 0 | 1 | 0 | 2 | 0 | 0 | 0 | 0 |  |  |  | 0 | 0 | 0 | 0 | 0 |
| PDK1 (UniProt Q15118) | 0 | 0 | 0 | 0 | 0 | 0 | 0 | 0 | 0 | 0 | 0 | 1 | 0 | 0 | 0 | 0 |
| YES1 (UniProt P07947) | 0 | 0 | 0 | 0 | 0 | 0 | 0 | 0 | 0 | 0 | 0 | 0 | 0 | 0 | 0 | 0 |
| CSNK1D (UniProt P48730) | 0 | 0 | 0 | 0 | 0 | 0 | 0 | 0 | 0 |  | 0 | 0 | 0 | 0 | 0 | 0 |
| MAPKAPK2 (UniProt P49137) | 0 | 0 | 0 | 0 | 0 | 0 | 0 | 0 | 0 | 0 | 0 | 0 | 0 | 0 | 0 | 0 |
| PIK4CA (UniProt P42356) | 0 | 0 | 0 | 0 | 0 | 0 | 0 | 0 | 0 | 0 | 0 | 0 | 0 | 0 | 0 | 0 |
| MKNK1 (UniProt Q9BUB5) | 0 | 0 | 0 | 3 | 0 | 0 | 0 | 0 | 0 | 0 | 0 | 0 | 0 | 0 | 0 | 1 |
| RET (UniProt P07949) | 0 |  | 0 | 0 |  |  | 0 | 0 |  | 0 | 0 | 0 | 0 |  | 0 | 1 |
| PDGFRB (UniProt P09619) | 2 | 0 | 0 | 0 |  | 0 |  | 0 | 0 | 0 | 0 | 0 | 0 | 0 | 0 | 1 |
| HER2 (UniProt P04626) | 0 | 2 | 0 | 1 | 0 | 5 |  | 0 | 0 | 0 | 0 | 0 | 0 | 0 | 0 | 5 |
| NTRK3 (UniProt Q16288) |  | 0 | 0 |  | 0 | 0 | 0 | 0 | 0 | 0 | 0 | 0 | 0 |  | 0 | 0 |
| EGFR_T790M (UniProt P00533) |  | 0 | 0 | 0 |  |  |  | 0 | 0 |  |  | 0 | 0 | 0 | 0 | 0 |
| LYN (UniProt P07948) | 0 | 0 | 0 | 0 | 0 | 0 | 0 |  | 0 | 0 | 0 | 0 | 0 | 0 | 0 | 1 |
| EGFR_L718V (UniProt P00533) |  | 0 | 0 | 0 |  |  |  | 0 | 0 |  |  | 0 | 0 | 0 | 0 | 0 |
| RET_M918T (clone: RET_mut) (UniProt P07949) | 0 |  | 0 | 0 |  | 0 | 0 | 0 |  | 0 | 0 | 0 | 0 |  | 0 | 0 |
| ZAK (UniProt Q9NYL2) | 0 | 0 | 0 |  |  | 0 | 0 | 0 |  | 0 |  | 0 | 0 | 0 | 0 | 0 |
| MAP2K2 (UniProt P36507) | 0 | 0 | 0 | 0 |  | 0 | 0 | 0 | 0 | 0 | 0 | 1 | 0 | 0 | 0 | 0 |
| PTK2 (UniProt Q05397) | 0 | 0 | 0 | 1 | 1 | 1 |  | 0 | 0 | 0 | 0 | 0 | 0 | 0 | 0 | 0 |
| SRC (UniProt P12931) |  | 0 | 0 | 0 | 0 |  | 0 | 0 | 0 | 0 | 0 | 0 | 0 |  | 0 | 0 |
| ALK (UniProt Q9UM73) | 0 |  | 0 | 0 |  | 0 | 0 | 0 | 0 | 0 | 0 | 0 | 0 |  | 0 | 1 |

Twelve entries from above, reformatted:
Target	number of time points (Sorafenib)	number of time points [1]	number of time points [2]	number of time points (Bosutinib)	number of time points (Vandetanib)	number of time points (Gefitinib)	number of time points [3]	number of time points [4]	number of time points [5]	number of time points [6]	number of time points [7]	number of time points (HDACs/mTOR Inhibitor 1)	number of time points (Quercitrin)	number of time points [8]	number of time points (Fenebrutinib)	number of time points [9]
CSNK1D (UniProt P48730)	0	0	0	0	0	0	0	0	0		0	0	0	0	0	0
MAPKAPK2 (UniProt P49137)	0	0	0	0	0	0	0	0	0	0	0	0	0	0	0	0
PIK4CA (UniProt P42356)	0	0	0	0	0	0	0	0	0	0	0	0	0	0	0	0
MKNK1 (UniProt Q9BUB5)	0	0	0	3	0	0	0	0	0	0	0	0	0	0	0	1
RET (UniProt P07949)	0		0	0			0	0		0	0	0	0		0	1
PDGFRB (UniProt P09619)	2	0	0	0		0		0	0	0	0	0	0	0	0	1
HER2 (UniProt P04626)	0	2	0	1	0	5		0	0	0	0	0	0	0	0	5
NTRK3 (UniProt Q16288)		0	0		0	0	0	0	0	0	0	0	0		0	0
EGFR_T790M (UniProt P00533)		0	0	0				0	0			0	0	0	0	0
LYN (UniProt P07948)	0	0	0	0	0	0	0		0	0	0	0	0	0	0	1
EGFR_L718V (UniProt P00533)		0	0	0				0	0			0	0	0	0	0
RET_M918T (clone: RET_mut) (UniProt P07949)	0		0	0		0	0	0		0	0	0	0		0	0
